PubChem BioAssay AID1259308, NCATS | 2017
This is an unselected part of about 59,000 reagents tested. About 1,510 of them (2.6%) were called active. 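Calls use total luciferase alone and ignore viability, so some active siRNAs may act by altering cell number.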 A number with no mark means an inactive call. Reagents against one gene are numbered here. Not all columns of the deposit are shown.

Purpose: 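Knock-downs that increase output of a recombinant reporter protein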 (primary screen)
System: human HEK293 embryonic kidney cells stably expressing firefly luciferase (HEK-CMV-Luc2-Hygro)
Reagents: single siRNA against human genes, 0.8 pmol siRNA per well
Timing: 72 h
Read-out: 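Luciferase light (ONE-Glo) measured on one replicate plate set and viability (CellTiter-Glo) on the other, scaled to a negative control siRNA, with robust z-scores and luciferase per cell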
Direction: total luciferase, z-score: higher = more reporter protein produced
Active means: 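An siRNA counts as active if its total luciferase robust z-score exceeds 3; genes with two or more such siRNAs out of three were retested with fresh siRNAs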
Meaning of the calls: active = raised luciferase; inactive = no rise

How did the screen score IFNAR1 (GeneID 3454) #1?
total luciferase, z-score: 0.438

For IFNAR1 (GeneID 3454) #2, what was measured?
total luciferase, z-score: 1.11

With IFNAR1 (GeneID 3454) #3, how do the results read?
total luciferase, z-score: 1.54

For ZNF436-AS1 (GeneID 148898) #1, how do the results read?
total luciferase, z-score: -0.821

For ZNF436-AS1 (GeneID 148898) #2, what was measured?
total luciferase, z-score: 1.83

For ZNF436-AS1 (GeneID 148898) #3, what does the deposit list?
total luciferase, z-score: -0.674

With LINC00173 (GeneID 100287569) #1, what does the deposit list?
total luciferase, z-score: -1.68

What is on record for LINC00173 (GeneID 100287569) #2?
total luciferase, z-score: 0.878

With LINC00173 (GeneID 100287569) #3, what was measured?
total luciferase, z-score: 1.42

For LINC00482 (GeneID 284185) #1, what was measured?
total luciferase, z-score: 1.48

How did the screen score LINC00482 (GeneID 284185) #2?
total luciferase, z-score: 0.69

For LINC00482 (GeneID 284185) #3, what was measured?
total luciferase, z-score: -0.4

With RERGL (GeneID 79785) #1, how do the results read?
total luciferase, z-score: 0.171

How did the screen score RERGL (GeneID 79785) #2?
total luciferase, z-score: -0.173

With RERGL (GeneID 79785) #3, how do the results read?
total luciferase, z-score: -0.0121

How did the screen score VWA2 (GeneID 340706) #1?
total luciferase, z-score: 0.47

How did the screen score VWA2 (GeneID 340706) #2?
total luciferase, z-score: 0.00739

With VWA2 (GeneID 340706) #3, what does the deposit list?
total luciferase, z-score: -1.07

With PLAGL2 (GeneID 5326) #1, how do the results read?
total luciferase, z-score: 1.51

With PLAGL2 (GeneID 5326) #2, what does the deposit list?
total luciferase, z-score: 0.258

For PLAGL2 (GeneID 5326) #3, what does the deposit list?
total luciferase, z-score: 1.74

Which result is listed for RNF168 (GeneID 165918) #1?
total luciferase, z-score: -1.11

What did the screen give for RNF168 (GeneID 165918) #2?
total luciferase, z-score: 0.614

With RNF168 (GeneID 165918) #3, what was measured?
total luciferase, z-score: -0.829

Sorted by “total luciferase, z-score” (ascending): 7 of the entries above.
RNF168 (GeneID 165918) #1 — total luciferase, z-score = -1.11
VWA2 (GeneID 340706) #3 — total luciferase, z-score = -1.07
VWA2 (GeneID 340706) #2 — total luciferase, z-score = 0.00739
PLAGL2 (GeneID 5326) #2 — total luciferase, z-score = 0.258
VWA2 (GeneID 340706) #1 — total luciferase, z-score = 0.47
PLAGL2 (GeneID 5326) #1 — total luciferase, z-score = 1.51
PLAGL2 (GeneID 5326) #3 — total luciferase, z-score = 1.74

Continued:
Which result is listed for MAGEA10 (GeneID 4109) #1?
total luciferase, z-score: -0.555

What is on record for MAGEA10 (GeneID 4109) #2?
total luciferase, z-score: 1.27

How did the screen score MAGEA10 (GeneID 4109) #3?
total luciferase, z-score: 0.986

With LOC644667 (GeneID 644667) #1, what was measured?
total luciferase, z-score: -0.49

Which result is listed for LOC644667 (GeneID 644667) #2?
total luciferase, z-score: -0.137

What is on record for LOC644667 (GeneID 644667) #3?
total luciferase, z-score: 4.01 (active)

How did the screen score MTRF1L (GeneID 54516) #1?
total luciferase, z-score: 0.178

What did the screen give for MTRF1L (GeneID 54516) #2?
total luciferase, z-score: 0.518

What did the screen give for MTRF1L (GeneID 54516) #3?
total luciferase, z-score: 0.191

What did the screen give for VPS37C (GeneID 55048) #1?
total luciferase, z-score: -0.272

For VPS37C (GeneID 55048) #2, how do the results read?
total luciferase, z-score: -0.222

How did the screen score VPS37C (GeneID 55048) #3?
total luciferase, z-score: 0.313

For ZNF41 (GeneID 7592) #1, how do the results read?
total luciferase, z-score: 2.95

For ZNF41 (GeneID 7592) #2, what was measured?
total luciferase, z-score: -0.408

What is on record for ZNF41 (GeneID 7592) #3?
total luciferase, z-score: -0.408

For MGAT4B (GeneID 11282) #1, what was measured?
total luciferase, z-score: -0.703

What is on record for MGAT4B (GeneID 11282) #2?
total luciferase, z-score: 0.306

With MGAT4B (GeneID 11282) #3, how do the results read?
total luciferase, z-score: 4.32 (active)
